The data set is described as follows: peptide synthesis. Particulars: purification step, acid addition salt.

[ ]: non-standard residue; d: D form. Met(O2) = CS(=O)(=O)CC[C@H](N)C(=O)O

For H-[Met(O2)]EHF[dK]F-OH, under “HPLC (HP1090M), peak area percent”, the “final HPLC purity” value amounted to 99.3%. For the same substance, the step yield (crystallisation yield) lay within 40 to 50%.

These data come from patent EP0461696 (dated 1993).
